# Assay results reported in the supplement of paper PMC10849652.
# Protein sequences, listed by entry. Tags and fused reporters are not part of them. Lines headed by an entry give the natural chain unless they say otherwise; changes in a name come on top.
# UniProt Q92611: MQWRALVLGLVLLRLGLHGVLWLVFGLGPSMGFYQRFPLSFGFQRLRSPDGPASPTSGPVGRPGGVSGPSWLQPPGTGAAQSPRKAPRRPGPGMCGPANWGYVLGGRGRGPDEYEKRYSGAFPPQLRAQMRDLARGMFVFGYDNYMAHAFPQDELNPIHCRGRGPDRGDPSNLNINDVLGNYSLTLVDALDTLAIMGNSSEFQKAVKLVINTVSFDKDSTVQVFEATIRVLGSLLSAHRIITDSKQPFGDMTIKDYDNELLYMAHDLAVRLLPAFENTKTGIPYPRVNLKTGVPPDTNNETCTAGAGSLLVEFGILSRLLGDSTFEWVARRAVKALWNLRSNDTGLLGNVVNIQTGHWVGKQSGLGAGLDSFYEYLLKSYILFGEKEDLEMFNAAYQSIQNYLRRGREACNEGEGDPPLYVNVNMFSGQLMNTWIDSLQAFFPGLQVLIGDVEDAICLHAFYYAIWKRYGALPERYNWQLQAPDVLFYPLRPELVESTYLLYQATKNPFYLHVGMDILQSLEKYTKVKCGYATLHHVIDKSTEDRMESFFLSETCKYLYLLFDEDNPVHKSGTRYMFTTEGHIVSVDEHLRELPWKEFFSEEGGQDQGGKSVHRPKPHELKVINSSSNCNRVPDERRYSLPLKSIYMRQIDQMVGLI
# UniProt P63167, whole entry, looked up: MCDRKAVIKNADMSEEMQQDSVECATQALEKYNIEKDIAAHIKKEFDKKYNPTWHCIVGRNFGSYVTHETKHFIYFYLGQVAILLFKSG
# UniProt Q7L8W6: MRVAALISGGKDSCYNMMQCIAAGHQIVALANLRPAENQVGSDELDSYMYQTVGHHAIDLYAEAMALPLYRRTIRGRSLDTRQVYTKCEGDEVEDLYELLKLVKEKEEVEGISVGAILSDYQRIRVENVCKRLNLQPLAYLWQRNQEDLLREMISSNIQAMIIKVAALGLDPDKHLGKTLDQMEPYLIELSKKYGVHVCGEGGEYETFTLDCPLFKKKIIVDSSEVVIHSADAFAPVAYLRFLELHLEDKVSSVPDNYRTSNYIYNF
# UniProt Q8WXX5: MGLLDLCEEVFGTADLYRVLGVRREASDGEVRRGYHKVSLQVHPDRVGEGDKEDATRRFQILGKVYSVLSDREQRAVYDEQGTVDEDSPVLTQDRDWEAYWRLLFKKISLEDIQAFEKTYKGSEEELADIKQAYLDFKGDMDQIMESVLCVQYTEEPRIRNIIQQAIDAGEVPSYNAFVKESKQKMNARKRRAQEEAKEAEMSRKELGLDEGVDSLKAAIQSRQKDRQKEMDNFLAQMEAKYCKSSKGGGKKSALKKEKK
# UniProt Q99543: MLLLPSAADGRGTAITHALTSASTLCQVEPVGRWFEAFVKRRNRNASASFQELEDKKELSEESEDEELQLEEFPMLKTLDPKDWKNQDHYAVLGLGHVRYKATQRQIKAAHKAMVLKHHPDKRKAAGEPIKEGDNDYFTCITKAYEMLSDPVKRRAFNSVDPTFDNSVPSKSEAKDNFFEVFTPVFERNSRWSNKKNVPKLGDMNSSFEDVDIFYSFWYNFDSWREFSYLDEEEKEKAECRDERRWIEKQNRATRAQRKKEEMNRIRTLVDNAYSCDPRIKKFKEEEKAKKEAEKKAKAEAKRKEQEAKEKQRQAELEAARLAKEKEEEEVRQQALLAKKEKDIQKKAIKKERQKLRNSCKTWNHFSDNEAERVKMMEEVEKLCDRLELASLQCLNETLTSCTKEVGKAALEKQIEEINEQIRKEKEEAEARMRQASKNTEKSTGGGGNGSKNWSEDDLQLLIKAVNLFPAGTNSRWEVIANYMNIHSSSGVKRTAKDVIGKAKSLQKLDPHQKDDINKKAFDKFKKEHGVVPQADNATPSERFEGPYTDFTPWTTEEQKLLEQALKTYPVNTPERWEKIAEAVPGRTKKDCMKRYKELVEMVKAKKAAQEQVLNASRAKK
# UniProt P42126: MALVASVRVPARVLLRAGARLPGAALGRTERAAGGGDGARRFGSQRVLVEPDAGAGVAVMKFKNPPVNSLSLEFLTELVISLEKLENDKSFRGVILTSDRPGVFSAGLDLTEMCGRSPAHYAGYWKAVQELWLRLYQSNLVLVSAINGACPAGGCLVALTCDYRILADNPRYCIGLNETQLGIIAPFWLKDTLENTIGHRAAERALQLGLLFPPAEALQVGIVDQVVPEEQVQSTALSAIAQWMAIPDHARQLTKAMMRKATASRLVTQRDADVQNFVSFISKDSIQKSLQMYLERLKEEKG
# UniProt O00429, whole entry, looked up: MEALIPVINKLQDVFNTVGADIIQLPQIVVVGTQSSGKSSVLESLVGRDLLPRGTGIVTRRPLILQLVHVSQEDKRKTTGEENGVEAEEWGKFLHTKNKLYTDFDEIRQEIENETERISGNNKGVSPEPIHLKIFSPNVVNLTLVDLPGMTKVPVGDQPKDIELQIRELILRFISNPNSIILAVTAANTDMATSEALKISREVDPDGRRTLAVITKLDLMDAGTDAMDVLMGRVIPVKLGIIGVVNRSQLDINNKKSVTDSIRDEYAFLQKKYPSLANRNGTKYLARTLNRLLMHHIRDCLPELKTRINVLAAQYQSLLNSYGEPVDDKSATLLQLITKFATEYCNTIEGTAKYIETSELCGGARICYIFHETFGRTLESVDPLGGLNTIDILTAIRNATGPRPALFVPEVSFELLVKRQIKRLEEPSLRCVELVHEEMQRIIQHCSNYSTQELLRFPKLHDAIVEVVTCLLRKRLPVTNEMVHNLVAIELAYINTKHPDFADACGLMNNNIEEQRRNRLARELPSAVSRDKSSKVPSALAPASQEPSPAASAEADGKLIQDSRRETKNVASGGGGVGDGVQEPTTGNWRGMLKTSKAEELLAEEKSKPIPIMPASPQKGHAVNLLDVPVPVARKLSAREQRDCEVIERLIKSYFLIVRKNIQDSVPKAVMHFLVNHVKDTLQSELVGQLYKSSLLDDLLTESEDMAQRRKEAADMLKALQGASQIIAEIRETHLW
# UniProt Q9NTX5: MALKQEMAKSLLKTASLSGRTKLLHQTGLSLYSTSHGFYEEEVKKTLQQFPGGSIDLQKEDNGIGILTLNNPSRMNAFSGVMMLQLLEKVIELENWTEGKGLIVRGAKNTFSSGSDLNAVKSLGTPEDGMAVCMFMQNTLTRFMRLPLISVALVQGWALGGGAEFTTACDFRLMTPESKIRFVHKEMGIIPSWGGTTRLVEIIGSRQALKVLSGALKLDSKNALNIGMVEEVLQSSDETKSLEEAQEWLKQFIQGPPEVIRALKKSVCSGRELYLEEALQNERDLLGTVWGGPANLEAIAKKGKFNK
# UniProt Q01658: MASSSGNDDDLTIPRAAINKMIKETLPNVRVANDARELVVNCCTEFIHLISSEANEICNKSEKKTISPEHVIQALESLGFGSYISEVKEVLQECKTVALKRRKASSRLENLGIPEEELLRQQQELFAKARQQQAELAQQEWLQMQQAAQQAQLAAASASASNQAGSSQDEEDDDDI
# UniProt Q9C005, whole entry, looked up: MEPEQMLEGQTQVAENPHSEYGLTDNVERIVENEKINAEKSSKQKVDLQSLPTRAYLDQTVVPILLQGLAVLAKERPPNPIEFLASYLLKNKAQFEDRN
# UniProt O75190: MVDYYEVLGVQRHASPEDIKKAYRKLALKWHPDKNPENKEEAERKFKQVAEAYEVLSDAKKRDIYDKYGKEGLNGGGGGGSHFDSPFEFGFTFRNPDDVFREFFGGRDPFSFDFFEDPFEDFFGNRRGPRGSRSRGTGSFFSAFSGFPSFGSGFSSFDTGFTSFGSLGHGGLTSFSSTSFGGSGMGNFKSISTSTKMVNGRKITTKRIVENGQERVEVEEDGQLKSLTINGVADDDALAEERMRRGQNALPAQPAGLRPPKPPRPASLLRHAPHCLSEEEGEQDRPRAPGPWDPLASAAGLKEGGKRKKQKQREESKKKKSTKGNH
# UniProt Q9NVM6: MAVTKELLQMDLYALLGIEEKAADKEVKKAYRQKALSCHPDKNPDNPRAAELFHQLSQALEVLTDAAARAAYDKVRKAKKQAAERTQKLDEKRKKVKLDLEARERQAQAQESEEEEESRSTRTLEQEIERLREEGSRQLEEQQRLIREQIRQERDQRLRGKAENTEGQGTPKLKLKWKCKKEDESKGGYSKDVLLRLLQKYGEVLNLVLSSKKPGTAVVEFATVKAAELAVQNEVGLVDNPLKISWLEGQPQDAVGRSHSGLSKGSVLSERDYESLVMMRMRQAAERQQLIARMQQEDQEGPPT
# UniProt Q9BQC3: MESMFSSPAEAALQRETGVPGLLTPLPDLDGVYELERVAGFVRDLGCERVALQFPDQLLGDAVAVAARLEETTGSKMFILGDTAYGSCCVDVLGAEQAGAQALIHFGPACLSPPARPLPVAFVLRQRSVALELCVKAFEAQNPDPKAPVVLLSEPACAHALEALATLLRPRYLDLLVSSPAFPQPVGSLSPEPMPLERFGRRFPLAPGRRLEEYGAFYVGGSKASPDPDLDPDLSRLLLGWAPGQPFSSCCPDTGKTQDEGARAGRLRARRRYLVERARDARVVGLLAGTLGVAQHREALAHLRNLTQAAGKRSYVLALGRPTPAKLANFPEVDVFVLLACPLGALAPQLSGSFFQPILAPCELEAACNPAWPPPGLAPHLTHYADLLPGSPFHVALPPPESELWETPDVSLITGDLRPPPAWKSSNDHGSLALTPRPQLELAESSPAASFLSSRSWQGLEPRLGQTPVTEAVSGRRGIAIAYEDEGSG
# UniProt O43598: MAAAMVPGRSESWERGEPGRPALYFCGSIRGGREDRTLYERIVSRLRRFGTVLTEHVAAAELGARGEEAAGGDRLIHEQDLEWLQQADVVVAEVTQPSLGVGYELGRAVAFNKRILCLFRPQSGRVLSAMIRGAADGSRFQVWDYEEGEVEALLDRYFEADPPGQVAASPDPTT
# UniProt Q9H3H5: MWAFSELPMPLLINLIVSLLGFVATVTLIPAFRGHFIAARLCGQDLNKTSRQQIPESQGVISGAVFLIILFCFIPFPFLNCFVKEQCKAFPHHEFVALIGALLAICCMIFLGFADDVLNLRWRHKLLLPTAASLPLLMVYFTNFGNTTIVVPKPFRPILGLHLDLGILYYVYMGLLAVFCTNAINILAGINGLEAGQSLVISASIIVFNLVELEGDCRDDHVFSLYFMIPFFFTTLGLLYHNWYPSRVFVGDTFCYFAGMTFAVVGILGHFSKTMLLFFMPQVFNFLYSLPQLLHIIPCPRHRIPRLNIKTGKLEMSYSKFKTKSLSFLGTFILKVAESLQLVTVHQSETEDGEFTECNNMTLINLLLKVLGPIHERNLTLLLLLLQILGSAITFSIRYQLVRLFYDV
# UniProt Q9BTV6: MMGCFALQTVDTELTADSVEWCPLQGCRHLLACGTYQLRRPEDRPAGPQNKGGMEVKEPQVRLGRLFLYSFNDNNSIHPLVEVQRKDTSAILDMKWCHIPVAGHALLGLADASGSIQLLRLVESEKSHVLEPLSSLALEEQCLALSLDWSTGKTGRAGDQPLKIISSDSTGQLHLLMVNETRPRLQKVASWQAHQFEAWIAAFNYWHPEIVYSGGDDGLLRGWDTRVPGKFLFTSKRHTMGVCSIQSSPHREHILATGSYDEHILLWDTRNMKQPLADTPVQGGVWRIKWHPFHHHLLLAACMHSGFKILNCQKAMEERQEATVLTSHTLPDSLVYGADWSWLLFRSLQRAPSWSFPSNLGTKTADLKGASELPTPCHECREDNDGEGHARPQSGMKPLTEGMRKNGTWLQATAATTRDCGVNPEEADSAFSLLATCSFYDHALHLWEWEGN
# UniProt Q9BZQ6: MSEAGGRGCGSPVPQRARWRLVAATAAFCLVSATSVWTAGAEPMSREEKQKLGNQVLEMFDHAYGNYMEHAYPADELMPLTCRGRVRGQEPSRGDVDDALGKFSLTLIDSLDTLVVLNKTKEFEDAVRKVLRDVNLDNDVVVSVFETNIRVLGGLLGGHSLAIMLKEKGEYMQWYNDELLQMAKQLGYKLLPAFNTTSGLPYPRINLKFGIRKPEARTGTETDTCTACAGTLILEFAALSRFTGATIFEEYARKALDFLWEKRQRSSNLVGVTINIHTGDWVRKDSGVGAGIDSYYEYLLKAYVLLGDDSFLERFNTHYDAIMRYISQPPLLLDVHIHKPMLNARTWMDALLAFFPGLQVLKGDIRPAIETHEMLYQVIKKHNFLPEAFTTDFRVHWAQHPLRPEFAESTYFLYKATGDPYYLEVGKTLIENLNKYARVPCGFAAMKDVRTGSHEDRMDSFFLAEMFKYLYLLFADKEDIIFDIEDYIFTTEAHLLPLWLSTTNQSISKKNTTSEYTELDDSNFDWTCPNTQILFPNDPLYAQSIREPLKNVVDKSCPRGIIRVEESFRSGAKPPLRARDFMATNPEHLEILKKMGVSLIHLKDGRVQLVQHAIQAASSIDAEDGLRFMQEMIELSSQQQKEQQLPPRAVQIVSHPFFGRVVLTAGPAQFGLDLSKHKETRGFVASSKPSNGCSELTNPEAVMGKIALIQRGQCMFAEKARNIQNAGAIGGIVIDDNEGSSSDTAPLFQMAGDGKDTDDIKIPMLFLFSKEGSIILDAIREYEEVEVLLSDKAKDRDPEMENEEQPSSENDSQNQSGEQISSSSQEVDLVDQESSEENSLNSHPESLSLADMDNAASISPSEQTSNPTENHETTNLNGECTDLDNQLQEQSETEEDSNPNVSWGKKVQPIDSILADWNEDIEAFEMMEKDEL
# Some of the results follow.
# Compound: CN1CCN(CCOc2cc(OC3CCOCC3)c3c(Nc4c(Cl)ccc5c4OCO5)ncnc3c2)CC1 [saracatinib]
# Assay: log2 fold change, soluble protein after heating vs DMSO (PISA); higher = thermal stabilisation; K562 cells, 10 uM, 30 min; active = over 0.2 and 3.5 SD of the protein, either way, in both replicates (recomputed)
# Method in brief: (§1)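 Aliquots of K562 cells (2×10^6 cells/mL) treated with 10 μM compound for 30 min were heated for 3 min over 48°C-58°C. After pooling and extraction in PBS with 0.5% NP-40 at 4°C, soluble protein from a 21,000xg, 90 min spin was quantified by TMTpro 16plex LC-MS/MS with channel sums equalised. Thermal stability is expressed against control samples, from duplicates, as a log2 fold change.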
row,Target,log2 fold change
1,EDEM1 (UniProt Q92611),inactive: -0.04
2,EBP (UniProt Q15125),inactive: 0.054
3,DYNLL1 (UniProt P63167),inactive: -0.036
4,DPH6 (UniProt Q7L8W6),inactive: 0.014
5,ECSIT (UniProt Q9BQ95),inactive: 0.054
6,DNAJC9 (UniProt Q8WXX5),inactive: -0.033
7,DNAJC2 (UniProt Q99543),inactive: -0.115
8,ECI1 (UniProt P42126),inactive: 0.008
9,DNM1L isoform 6 (UniProt O00429),inactive: 0.005
10,DPF2 (UniProt Q92785),inactive: 0.024
11,DNAJB4 (UniProt Q9UDY4),inactive: 0.015
12,ECHDC1 (UniProt Q9NTX5),inactive: 0.051
13,DTD1 (UniProt Q8TEA8),inactive: 0.056
14,DR1 (UniProt Q01658),inactive: 0.003
15,DPY30 (UniProt Q9C005),inactive: -0.196
16,DNAJB6 (UniProt O75190),inactive: 0.098
17,DOCK9 isoform 4 (UniProt Q9BZ29),inactive: -0.004

row,Target,log2 fold change
1,DPP7 (UniProt Q9UHL4),inactive: 0.017
2,DNASE2 (UniProt O00115),inactive: 0.005
3,DUSP3 (UniProt P51452),inactive: 0.036
4,DSG2 (UniProt Q14126),inactive: 0.051
5,DNAJC17 (UniProt Q9NVM6),inactive: -0.006
6,DPH2 (UniProt Q9BQC3),inactive: 0.018
7,EBAG9 isoform 2 (UniProt O00559),inactive: -0.119
8,DUT (UniProt P33316),inactive: -0.002
9,DNPH1 (UniProt O43598),inactive: 0.034
10,DPAGT1 (UniProt Q9H3H5),inactive: -0.121
11,DPH1 (UniProt Q9BZG8),inactive: 0.037
12,DOCK7 (UniProt Q96N67),inactive: 0.027
13,DPY19L4 (UniProt Q7Z388),inactive: 0.054
14,DPP9 isoform 2 (UniProt Q86TI2),inactive: -0.023
15,DPH7 (UniProt Q9BTV6),inactive: 0.012
16,EDEM3 (UniProt Q9BZQ6),inactive: -0.077

# Compound: CN1CCN(c2nc(C3=C(c4c[nH]c5ccccc45)C(=O)NC3=O)c3ccccc3n2)CC1 [sotrastaurin]
# Assay: as above
# Method in brief: as §1
row,Target,log2 fold change
1,EDEM1 (UniProt Q92611),inactive: -0.107
2,EBP (UniProt Q15125),inactive: -0.002
3,DYNLL1 (UniProt P63167),inactive: -0.067
4,DPH6 (UniProt Q7L8W6),inactive: 0.017
5,ECSIT (UniProt Q9BQ95),inactive: 0.055
6,DNAJC9 (UniProt Q8WXX5),inactive: -0.018
7,DNAJC2 (UniProt Q99543),inactive: -0.205
8,ECI1 (UniProt P42126),inactive: 0.023
9,DNM1L isoform 6 (UniProt O00429),inactive: 0.047
10,DPF2 (UniProt Q92785),inactive: 0.098
11,DNAJB4 (UniProt Q9UDY4),inactive: -0.025
12,ECHDC1 (UniProt Q9NTX5),inactive: 0.036
13,DTD1 (UniProt Q8TEA8),inactive: 0.033
14,DR1 (UniProt Q01658),inactive: -0.013
15,DPY30 (UniProt Q9C005),inactive: 0.199
16,DNAJB6 (UniProt O75190),inactive: 0.002
17,DOCK9 isoform 4 (UniProt Q9BZ29),inactive: -0.141

row,Target,log2 fold change
1,DPP7 (UniProt Q9UHL4),inactive: 0.061
2,DNASE2 (UniProt O00115),inactive: 0.01
3,DUSP3 (UniProt P51452),inactive: -0.009
4,DSG2 (UniProt Q14126),inactive: -0.018
5,DNAJC17 (UniProt Q9NVM6),inactive: 0.034
6,DPH2 (UniProt Q9BQC3),inactive: -0.04
7,EBAG9 isoform 2 (UniProt O00559),inactive: 0.011
8,DUT (UniProt P33316),inactive: 0.066
9,DNPH1 (UniProt O43598),inactive: 0.048
10,DPAGT1 (UniProt Q9H3H5),inactive: -0.008
11,DPH1 (UniProt Q9BZG8),inactive: -0.035
12,DOCK7 (UniProt Q96N67),inactive: 0.016
13,DPY19L4 (UniProt Q7Z388),inactive: 0.24
14,DPP9 isoform 2 (UniProt Q86TI2),inactive: 0.021
15,DPH7 (UniProt Q9BTV6),inactive: 0.002
16,EDEM3 (UniProt Q9BZQ6),inactive: 0.005

# Compound: CN1CC[C@H](c2c(O)cc(O)c3c(=O)cc(-c4ccccc4Cl)oc23)[C@H](O)C1 [alvocidib]
# Assay: as above
# Method in brief: as §1
row,Target,log2 fold change
1,EDEM1 (UniProt Q92611),inactive: 0.027
2,EBP (UniProt Q15125),inactive: -0.229
3,DYNLL1 (UniProt P63167),inactive: -0.035
4,DPH6 (UniProt Q7L8W6),inactive: 0.08
5,ECSIT (UniProt Q9BQ95),inactive: 0
6,DNAJC9 (UniProt Q8WXX5),inactive: -0.042
7,DNAJC2 (UniProt Q99543),inactive: 0.023
8,ECI1 (UniProt P42126),inactive: 0.008
9,DNM1L isoform 6 (UniProt O00429),inactive: -0.048
10,DPF2 (UniProt Q92785),inactive: -0.021
11,DNAJB4 (UniProt Q9UDY4),inactive: -0.013
12,ECHDC1 (UniProt Q9NTX5),inactive: 0.027
13,DTD1 (UniProt Q8TEA8),inactive: 0.055
14,DR1 (UniProt Q01658),inactive: 0.028
15,DPY30 (UniProt Q9C005),inactive: -0.071
16,DNAJB6 (UniProt O75190),inactive: -0.055
17,DOCK9 isoform 4 (UniProt Q9BZ29),inactive: 0.001

row,Target,log2 fold change
1,DPP7 (UniProt Q9UHL4),inactive: -0.006
2,DNASE2 (UniProt O00115),inactive: 0.016
3,DUSP3 (UniProt P51452),inactive: -0.061
4,DSG2 (UniProt Q14126),inactive: -0.002
5,DNAJC17 (UniProt Q9NVM6),inactive: -0.022
6,DPH2 (UniProt Q9BQC3),inactive: 0.006
7,EBAG9 isoform 2 (UniProt O00559),inactive: 0.01
8,DUT (UniProt P33316),inactive: -0.008
9,DNPH1 (UniProt O43598),inactive: -0.004
10,DPAGT1 (UniProt Q9H3H5),inactive: -0.076
11,DPH1 (UniProt Q9BZG8),inactive: 0.019
12,DOCK7 (UniProt Q96N67),inactive: -0.055
13,DPY19L4 (UniProt Q7Z388),inactive: -0.1
14,DPP9 isoform 2 (UniProt Q86TI2),inactive: -0.081
15,DPH7 (UniProt Q9BTV6),inactive: -0.023
16,EDEM3 (UniProt Q9BZQ6),inactive: 0.043
